Binding data for 1 molecule are collected here from article PMC9971907, “Cryo-EM analysis of V/A-ATPase intermediates reveals the transition of the ground-state structure to steady-state structures by sequential ATP binding” (The Journal of Biological Chemistry, 2023).

The target of the experiment is T1, V/A-ATPase E subunit, Thermus thermophilus (T. thermophilus) (UniProt P74901).
T1 sequence: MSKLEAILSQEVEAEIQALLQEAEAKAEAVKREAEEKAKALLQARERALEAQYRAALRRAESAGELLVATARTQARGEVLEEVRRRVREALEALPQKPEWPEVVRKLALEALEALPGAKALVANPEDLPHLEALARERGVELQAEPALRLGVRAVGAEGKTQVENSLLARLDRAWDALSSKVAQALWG
The experiment can be described thus: cryo-EM structure; nucleotide-free V/A-ATPase in nanodiscs, 4 uM enzyme mixed with an equal volume of x2 RB buffer (50 mM Tris-Cl pH 8.0, 100 mM KCl, 2 mM MgCl2, 5 mM PEP, 100 ug/ml PK, 20 mM ammonium sulfate) with ATP-Mg (low ATP, 60 s; or saturating ATP, 5 s or 30 s) at 25 °C; single-particle analysis, membrane domain subtracted, focused refinement of V1EG; both purified.

No constants are given. Whether binding was seen depends on the method and setting. Some entries that bind do so weakly or less than the wild type.

B1: V/A-ATPase G subunit, Thermus thermophilus (protein, UniProt Q5SIT5 1-120)
chain: MTGGLVLNAISRAGGAMGGLGLIKSLAEKEKQLLERLEAAKKEAEERVKRAEAEAKALLEEAEAKAKALEAQYRERERAETEALLARYRERAEAEAKAVREKAMARLDEAVALVLKEVLP
In the case of B1, the binding entry was “binds”.
